Screen size: about 300,000 compounds; about 5,400 (1.8%) were called active. The inconclusive results got no clear call from the source; some entries with a clear call stand among them for comparison. The call rests on the fitted dose curve; tested in HEK293 cells. Where the call is inconclusive, the potency comes from a doubtful curve fit. A structure can be active in one record and inactive in another.
Assay: qHTS for inhibitors of binding or entry into cells for Marburg Virus
Conditions: Marburg virus pseudotyped entry inhibition, cell reporter; activity change, negative = inhibition: at 37.8 µM (top of the series) unless noted
On the % scale 0 is the no-effect control and ±100 the full control effect; potency means the concentration at half of the fitted maximal effect.

SMILES	activity change, negative = inhibition	Potency
CCOC(=O)C1CCN(C(=O)C2CCC(=O)N(Cc3cccc(C(F)(F)F)c3)C2)CC1 (stereo not given)	inactive: -1.66%	–
CCn1c(SCC(=O)Nc2ccccc2N2CCCCC2)nc2c1c(=O)n(C)c(=O)n2C	–	inconclusive: 6.51 µM [inhibitor, full curve, poor fit]
CC(C)(C)OC(=O)NC(CCNC=C1C(=O)OC(C)(C)OC1=O)C(=O)O (stereo not given)	inactive: 16.7%	–
CCC(=O)N1CCN(C(=O)c2ccccc2)CC1	–	inconclusive: 5.62 µM [activator, single point]
CC1(C(=O)NNC(=S)NCC2CCCO2)CC1(Cl)Cl (stereo not given)	inactive: -2.45% [at 46.1 µM]	–
COc1ccc2c(c1)c(CC(=O)Nc1c(C)cccc1C)c(C)n2C(=O)c1ccc(Cl)cc1	inactive: -16.2% [at 46.1 µM]	–
CN(C)c1ccnc2sc3c(=O)n(-c4ccccc4)cnc3c12	–	inconclusive: 5.8 µM [activator, partial curve]
O=[N+]([O-])c1ccc(/C=N/Nc2nc(N3CCCCC3)nc(N3CCCCC3)n2)o1	–	active: 20.6 µM
CC1(C)CC(=O)c2c(nc(SCC(=O)Nc3nsc(-c4ccccc4)n3)c(C#N)c2-c2ccccc2)C1	–	inconclusive: 17.8 µM [inhibitor, single point]
O=C(CCCn1c(=O)[nH]c2cc(Cl)ccc2c1=O)N1CCN(c2ccc([N+](=O)[O-])cc2)CC1	–	inconclusive: 5.8 µM [inhibitor, partial curve, poor fit]
CC(Sc1ncccn1)C(=O)N1CCc2ccccc21 (stereo not given)	–	inconclusive: 1 µM [activator, partial curve, poor fit]
O=C(/C=C/c1ccc(Cl)c(Cl)c1)N1CCOCC1	–	inconclusive: 20 µM [activator, partial curve, poor fit]
O=C(Cc1ccc(Cl)cc1)Nc1ccc(SC(F)F)cc1	–	inconclusive: 22.4 µM [inhibitor, single point]
CC1=C(C(=O)OCC2CCCO2)C(c2ccccc2Cl)NC(=O)N1 (stereo not given)	inactive: 6.27%	–
Cc1ccc2c(=O)cc(C(=O)N(Cc3ccc(C(C)(C)C)cc3)C3CCS(=O)(=O)C3)oc2c1 (stereo not given)	inactive: -26.2% [at 46.1 µM]	–
COc1ccc(C(=O)CSc2cc(C)nc(SCC(=O)c3ccc(C)cc3)n2)cc1	–	inconclusive: 5.01 µM [inhibitor, partial curve, poor fit]
Cc1ccc(N(CC(=O)NCCSCc2ccco2)S(=O)(=O)c2ccc(C)cc2)cc1	–	inconclusive: 35.5 µM [inhibitor, single point]
COc1ccc2c(c1)c(C(=O)N/N=C/c1cccc(Br)c1)c(C)n2C	inactive: -9.96%	–
COc1ccc(C=CC(=O)c2ccc(OC)c(OC)c2O)cc1OC	–	inconclusive: 22.4 µM [inhibitor, partial curve, poor fit]
CC(C)Sc1ccc(C(=O)Nc2ccc(F)cc2F)cn1	–	inconclusive: 3.16 µM [inhibitor, single point]
Cc1ccc(-n2ncc3c(SCc4cccnc4)ncnc32)c(C)c1	–	inconclusive: 1.78 µM [inhibitor, partial curve, poor fit]
Cc1ccc(S(=O)(=O)Nc2nc3n(n2)C(c2ccc(Cl)cc2)CC(=O)N3)cc1 (stereo not given)	inactive: -16.9%	–
O=c1cc(N=Nc2ccc(Cl)cc2)[nH]c(=O)[nH]1	inactive: 5.29% [at 46.1 µM]	–
O=C(N/N=C/c1c[nH]c2ccccc12)c1ccn(Cc2ccc(Cl)cc2)n1	–	inconclusive: 25.1 µM [inhibitor, single point]

SMILES	activity change, negative = inhibition	Potency
Cc1cc(NC(=O)c2cc(-c3ccccc3Cl)nc3ccccc23)no1	–	inconclusive: 20 µM [inhibitor, single point]
CCOC(=O)c1[nH]c(C)c(C(=O)N2CCN(c3cccc(Cl)c3)CC2)c1C	inactive: 3.2%	–
CN(C)S(=O)(=O)N1CCN(c2ccc([N+](=O)[O-])c(NC3CC3)c2)CC1	inactive: 0.486% [at 46.1 µM]	–
N#CC1=C(SCc2ccccc2)NC2=C(C(=O)CCC2)C1c1ccc2c(c1)OCO2 (stereo not given)	–	inconclusive: 35.5 µM [inhibitor, single point]
CC(C)Cn1c(N)c(C(=O)COC(=O)c2cccc(Cl)c2)c(=O)n(C)c1=O	–	inconclusive: 17.8 µM [inhibitor, single point]
Cc1nnc(SCC(=O)Nc2ncc3c(n2)CCCC3=O)s1	–	inconclusive: 7.08 µM [inhibitor, partial curve, poor fit]
COc1ccc(NC(=O)Nc2nnc(N3CCCC3)s2)cc1	inactive: 0.851% [at 46.1 µM]	–
O=C(Cc1ccccc1)NNC(=O)Nc1ccc(Cl)c(Cl)c1	–	inconclusive: 23.1 µM [inhibitor, partial curve, poor fit]
S=C(NCc1ccco1)NC1CCCc2ccccc21 (stereo not given)	–	inconclusive: 22.4 µM [inhibitor, single point]
O=C(NN=C1CCCCCCCCCCC1)c1ccccc1F	–	inconclusive: 15.8 µM [activator, single point]
CCN(CC)C(=O)Cn1cc(S(=O)(=O)CC(=O)N2CC(C)OC(C)C2)c2ccccc21 (stereo not given)	–	inconclusive: 14.1 µM [activator, single point]
CN(C)CCOC1c2ccccc2CSc2ccccc21 (stereo not given)	–	inconclusive: 35.5 µM [inhibitor, single point]
O=C(Nc1cccc(S(=O)(=O)C(F)F)c1)c1ccc(Cl)c(S(=O)(=O)N2CCOCC2)c1	–	active: 10 µM
Cc1cc(C)cc(N(C(=O)c2csnn2)C(C(=O)NC2CCCCC2)c2cccnc2)c1 (stereo not given)	–	inconclusive: 20 µM [inhibitor, single point]
O=C(Nc1ccccc1)c1ccc2c(c1)OCCCO2	–	inconclusive: 5.01 µM [inhibitor, full curve, poor fit]
C=C(C)CNC(=S)N/N=C/c1ccc(N2CCOCC2)cc1	–	inconclusive: 3.16 µM [inhibitor, partial curve, poor fit]
CS(=O)(=O)c1ccc(Cl)c(C(=O)O)c1	inactive: 21.4%	–
Cc1ccc(-c2cnc(-c3ccncc3)o2)cc1	inactive: -0.168%	–
CC1(C)CC(=O)C2=C(C1)OC(c1ccc(O)cc1)C(C#N)=C2N (stereo not given)	–	inconclusive: 1 µM [inhibitor, single point]
COCCn1cnnc1SCC(=O)Nc1cccc(S(=O)(=O)N2CCCCCC2)c1	inactive: 12.2%	–
CCc1ccc(-c2cc(C(=O)N/N=C/c3c[nH]c4ccccc34)[nH]n2)cc1	–	inconclusive: 11.2 µM [inhibitor, partial curve, poor fit]
Cc1ncsc1CCC(=O)N1CCCC(Nc2ccc(C(C)C)cc2)C1 (stereo not given)	–	inconclusive: 25.1 µM [inhibitor, partial curve, poor fit]
CC1CCN(C(=O)Cn2c(=O)n(CCCC(=O)NCc3ccco3)c(=O)c3sccc32)CC1	–	inconclusive: 35.5 µM [inhibitor, single point]
COc1ccc(OC)c(NC(=O)CSc2nc3ccccc3cc2Cc2ccccc2)c1	–	inconclusive: 29.1 µM [inhibitor, single point]

20 entries from above, bar-delimited.
SMILES | activity change, negative = inhibition | Potency
Cc1cc(NC(=O)c2cc(-c3ccccc3Cl)nc3ccccc23)no1 | – | inconclusive: 20 µM [inhibitor, single point]
CCOC(=O)c1[nH]c(C)c(C(=O)N2CCN(c3cccc(Cl)c3)CC2)c1C | inactive: 3.2% | –
CN(C)S(=O)(=O)N1CCN(c2ccc([N+](=O)[O-])c(NC3CC3)c2)CC1 | inactive: 0.486% [at 46.1 µM] | –
N#CC1=C(SCc2ccccc2)NC2=C(C(=O)CCC2)C1c1ccc2c(c1)OCO2 (stereo not given) | – | inconclusive: 35.5 µM [inhibitor, single point]
CC(C)Cn1c(N)c(C(=O)COC(=O)c2cccc(Cl)c2)c(=O)n(C)c1=O | – | inconclusive: 17.8 µM [inhibitor, single point]
Cc1nnc(SCC(=O)Nc2ncc3c(n2)CCCC3=O)s1 | – | inconclusive: 7.08 µM [inhibitor, partial curve, poor fit]
O=C(Cc1ccccc1)NNC(=O)Nc1ccc(Cl)c(Cl)c1 | – | inconclusive: 23.1 µM [inhibitor, partial curve, poor fit]
S=C(NCc1ccco1)NC1CCCc2ccccc21 (stereo not given) | – | inconclusive: 22.4 µM [inhibitor, single point]
O=C(NN=C1CCCCCCCCCCC1)c1ccccc1F | – | inconclusive: 15.8 µM [activator, single point]
CCN(CC)C(=O)Cn1cc(S(=O)(=O)CC(=O)N2CC(C)OC(C)C2)c2ccccc21 (stereo not given) | – | inconclusive: 14.1 µM [activator, single point]
CN(C)CCOC1c2ccccc2CSc2ccccc21 (stereo not given) | – | inconclusive: 35.5 µM [inhibitor, single point]
O=C(Nc1cccc(S(=O)(=O)C(F)F)c1)c1ccc(Cl)c(S(=O)(=O)N2CCOCC2)c1 | – | active: 10 µM
C=C(C)CNC(=S)N/N=C/c1ccc(N2CCOCC2)cc1 | – | inconclusive: 3.16 µM [inhibitor, partial curve, poor fit]
CS(=O)(=O)c1ccc(Cl)c(C(=O)O)c1 | inactive: 21.4% | –
Cc1ccc(-c2cnc(-c3ccncc3)o2)cc1 | inactive: -0.168% | –
COCCn1cnnc1SCC(=O)Nc1cccc(S(=O)(=O)N2CCCCCC2)c1 | inactive: 12.2% | –
CCc1ccc(-c2cc(C(=O)N/N=C/c3c[nH]c4ccccc34)[nH]n2)cc1 | – | inconclusive: 11.2 µM [inhibitor, partial curve, poor fit]
Cc1ncsc1CCC(=O)N1CCCC(Nc2ccc(C(C)C)cc2)C1 (stereo not given) | – | inconclusive: 25.1 µM [inhibitor, partial curve, poor fit]
CC1CCN(C(=O)Cn2c(=O)n(CCCC(=O)NCc3ccco3)c(=O)c3sccc32)CC1 | – | inconclusive: 35.5 µM [inhibitor, single point]
COc1ccc(OC)c(NC(=O)CSc2nc3ccccc3cc2Cc2ccccc2)c1 | – | inconclusive: 29.1 µM [inhibitor, single point]

Next compounds follow:

SMILES	activity change, negative = inhibition	Potency
CNC(=S)N1CCN(c2nc3ccccc3s2)CC1	inactive: 22% [at 46.1 µM]	–
Cc1ccc(OCCSc2nnc(-c3cccs3)o2)cc1	inactive: 15.6% [at 46.1 µM]	–
Cc1ccc(CSc2nnc(CS(=O)Cc3ccc(Cl)cc3Cl)n2C)cc1 (stereo not given)	–	inconclusive: 29.1 µM [inhibitor, single point]
CC[C@@H](C)[C@H](NC(=O)Cc1c(C)c2c(cc(C)c3c(C)c(C)oc32)oc1=O)C(=O)O	–	inconclusive: 4.47 µM [inhibitor, single point]
COCCN(CC(=O)NCc1ccc(F)cc1)C(=O)CCC(=O)Nc1ccccn1	inactive: 2.92%	–
CC(C)=NNc1nc(-c2ccc([N+](=O)[O-])cc2)cs1	inactive: 17%	–
COC(=O)c1ccccc1C(=O)N1CCCC(C(=O)c2cc(F)ccc2F)C1 (stereo not given)	inactive: -0.56% [at 46.1 µM]	–
Cc1ccc(-c2nc3ncccc3o2)cc1NC(=O)c1ccc2c(c1)OCO2	inactive: 2.39% [at 46.1 µM]	–
COc1ccc(C(=O)N2CCN(C(=O)c3ccncc3)CC2)cc1	–	inconclusive: 3.26 µM [inhibitor, partial curve, poor fit]
CCC(CC)NCC(O)COc1ccc(Br)cc1 (stereo not given)	–	inconclusive: 35.5 µM [inhibitor, single point]
O=C(Cc1coc2cc3c(cc12)CCC3)NCC1(N2CCCCC2)CCCCC1	–	inconclusive: 25.1 µM [inhibitor, single point]
CC1(C)CC(=O)C(C=NC[C@@H](O)c2ccccc2)=C(O)C1	–	inconclusive: 4.61 µM [inhibitor, single point]
Cc1ccc(C(=O)COC(=O)CCC(=O)Nc2ccc(Oc3ccccc3)cc2)cc1	inactive: 3.44% [at 46.1 µM]	–
COc1ccc(S(=O)(=O)N(CC(=O)NCc2ccncc2)Cc2ccccc2)cc1	inactive: 9.19% [at 46.1 µM]	–
COc1ccc(CCNC(=O)CSc2cn(CCNC(=O)c3c(F)cccc3F)c3ccccc23)cc1OC	inactive: -11.2% [at 46.1 µM]	–
O=C(CCC(=O)Nc1ccccc1Cl)N/N=C1\CCCc2ccccc21	–	inconclusive: 1.41 µM [activator, single point]
CN(C)CCCN(C(=O)c1ccc2c(c1)CCCC2)c1nc2ccc(Cl)cc2s1	–	inconclusive: 10 µM [inhibitor, partial curve, poor fit]
COc1cc(C(=O)NCCCNc2nc3cc(C)c(C)cc3cc2C#N)cc(OC)c1OC	–	inconclusive: 15.8 µM [inhibitor, single point]
FC(F)(F)c1ccc(Cl)c(N/N=C/c2ccc(N3CCOCC3)s2)c1	inactive: 2.22%	–
Cc1ccccc1OCC(=O)Nc1ccc(S(=O)(=O)N(Cc2ccccc2)c2ccccc2)cc1	–	inconclusive: 5.62 µM [inhibitor, single point]
O=C(CCCCl)NC(=S)Nc1ccc(CN2CCOCC2)cc1	–	inconclusive: 6.31 µM [activator, partial curve, poor fit]
O=C(O)C1CCN(C(=O)CSc2nc3ccccc3s2)CC1	inactive: 5.09% [at 46.1 µM]	–

From PubChem BioAssay AID540276 (National Center for Advancing Translational Sciences (NCATS), 2011)
